# In article PMC8939146:
# These are yes or no findings as the source states them, for the method shown. In cells and extracts the contact can be indirect. Some binding calls cover weakened binding; strength is not graded here.
# T1: Signal transducer and activator of transcription 1 (STAT1) (human (endogenous in HCT116)), P42224
# T1 chain: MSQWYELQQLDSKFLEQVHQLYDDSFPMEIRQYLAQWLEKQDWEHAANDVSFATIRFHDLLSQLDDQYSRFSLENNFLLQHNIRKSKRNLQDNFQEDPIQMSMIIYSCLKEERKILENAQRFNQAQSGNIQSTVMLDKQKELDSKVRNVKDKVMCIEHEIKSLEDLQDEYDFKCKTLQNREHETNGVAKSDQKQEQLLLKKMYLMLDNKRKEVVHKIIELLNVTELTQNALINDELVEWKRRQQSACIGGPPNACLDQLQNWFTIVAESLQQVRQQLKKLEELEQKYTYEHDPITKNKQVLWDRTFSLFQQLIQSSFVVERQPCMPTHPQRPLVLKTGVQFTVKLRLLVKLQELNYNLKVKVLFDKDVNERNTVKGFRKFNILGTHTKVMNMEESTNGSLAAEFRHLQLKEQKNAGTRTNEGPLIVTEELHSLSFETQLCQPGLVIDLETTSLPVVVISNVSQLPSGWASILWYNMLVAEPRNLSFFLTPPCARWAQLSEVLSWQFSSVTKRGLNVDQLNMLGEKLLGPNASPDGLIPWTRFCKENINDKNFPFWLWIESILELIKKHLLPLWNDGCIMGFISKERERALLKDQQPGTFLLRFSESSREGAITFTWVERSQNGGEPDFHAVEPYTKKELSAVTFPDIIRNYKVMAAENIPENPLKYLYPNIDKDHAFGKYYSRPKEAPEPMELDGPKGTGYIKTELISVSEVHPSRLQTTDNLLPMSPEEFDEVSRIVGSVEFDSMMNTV
# B1: phosphorylated STAT1, P42224 1-750 (protein)
# chain: T1 chain
# modifications: here or on the partner: phosphorylated (site not stated)
# Tests used:
# [1] = target: Signal transducer and activator of transcription 1 (STAT1) (human (endogenous in HCT116)) (UniProt P42224); test: condition: only cells treated with 50 μM THIF for 6 h; co-IP; as a1, the sample of HCT116 cells treated with 50 μM THIF for 6 h
# [2] = target: T1, Signal transducer and activator of …; test: co-IP; HCT116 cells treated with vehicle (control) or 50 μM THIF for 6 h; total cell lysates (500 μg) immunoprecipitated with anti-STAT1 antibody overnight at 4 °C, protein A/G agarose 2 h at 4 °C, washed with PBS, Western blot; conditions: remark: other sources report otherwise
Molecule,binding [1],binding [2]
phosphorylated STAT1 (from UniProt P42224 1-750),no binding,
B1,,binds
